Here are results for one molecule from article PMC6691574.

Chains of the proteins cited; added tags and fusions are not shown.
UniProt P16671: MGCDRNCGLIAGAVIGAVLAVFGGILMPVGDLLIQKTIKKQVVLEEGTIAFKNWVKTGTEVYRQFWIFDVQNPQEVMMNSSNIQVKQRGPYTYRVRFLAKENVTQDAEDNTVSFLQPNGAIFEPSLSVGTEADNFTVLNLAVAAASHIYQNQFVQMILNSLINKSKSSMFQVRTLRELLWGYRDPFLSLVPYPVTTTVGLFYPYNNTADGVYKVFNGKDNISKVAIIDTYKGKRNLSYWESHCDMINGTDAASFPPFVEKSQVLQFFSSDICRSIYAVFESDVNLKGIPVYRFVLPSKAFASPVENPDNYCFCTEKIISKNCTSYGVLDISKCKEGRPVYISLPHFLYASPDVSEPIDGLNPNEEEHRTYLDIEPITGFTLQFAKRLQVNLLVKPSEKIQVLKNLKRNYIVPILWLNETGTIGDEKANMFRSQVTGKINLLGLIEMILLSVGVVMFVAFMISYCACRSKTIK

The test concerns the target FLAG-tagged CD36 (UniProt P16671). The test can be described thus: co-IP; total lysates of SGC 7901 cells expressing FLAG-CD36, IP with FLAG antibody, western blotting with the indicated antibodies; Pierce Co-Immunoprecipitation kit. A general note: In western blotting, separated proteins are transferred to a membrane and probed.

These are yes or no findings as the source states them, for the method shown. In cells and extracts the contact can be indirect. Some results given as binding are weak or reduced against the parent protein; the word gives no strength. Sequences can lack the tags named with a protein.

B1: O-linked N-acetylglucosamine transferase (OGT) (enzyme, UniProt O15294 1-1046)
chain: MASSVGNVADSTEPTKRMLSFQGLAELAHREYQAGDFEAAERHCMQLWRQEPDNTGVLLLLSSIHFQCRRLDRSAHFSTLAIKQNPLLAEAYSNLGNVYKERGQLQEAIEHYRHALRLKPDFIDGYINLAAALVAAGDMEGAVQAYVSALQYNPDLYCVRSDLGNLLKALGRLEEAKACYLKAIETQPNFAVAWSNLGCVFNAQGEIWLAIHHFEKAVTLDPNFLDAYINLGNVLKEARIFDRAVAAYLRALSLSPNHAVVHGNLACVYYEQGLIDLAIDTYRRAIELQPHFPDAYCNLANALKEKGSVAEAEDCYNTALRLCPTHADSLNNLANIKREQGNIEEAVRLYRKALEVFPEFAAAHSNLASVLQQQGKLQEALMHYKEAIRISPTFADAYSNMGNTLKEMQDVQGALQCYTRAIQINPAFADAHSNLASIHKDSGNIPEAIASYRTALKLKPDFPDAYCNLAHCLQIVCDWTDYDERMKKLVSIVADQLEKNRLPSVHPHHSMLYPLSHGFRKAIAERHGNLCLDKINVLHKPPYEHPKDLKLSDGRLRVGYVSSDFGNHPTSHLMQSIPGMHNPDKFEVFCYALSPDDGTNFRVKVMAEANHFIDLSQIPCNGKAADRIHQDGIHILVNMNGYTKGARNELFALRPAPIQAMWLGYPGTSGALFMDYIITDQETSPAEVAEQYSEKLAYMPHTFFIGDHANMFPHLKKKAVIDFKSNGHIYDNRIVLNGIDLKAFLDSLPDVKIVKMKCPDGGDNADSSNTALNMPVIPMNTIAEAVIEMINRGQIQITINGFSISNGLATTQINNKAATGEEVPRTIIVTTRSQYGLPEDAIVYCNFNQLYKIDPSTLQMWANILKRVPNSVLWLLRFPAVGEPNIQQYAQNMGLPQNRIIFSPVAPKEEHVRRGQLADVCLDTPLCNGHTTGMDVLWAGTPMVTMPGETLASRVAASQLTCLGCLELIAKNRQEYEDIAVKLGTDLEYLKKVRGKVWKQRISSPLFNTKQYTMELERLYLQMWEHYAAGNKPDHMIKPVEVTESA
For the molecule B1, the binding result is recorded as “binds”.
